Where a name gives a salt, the structure may show the parent alone. The list shows a part of the results. Single values are uncertain here, since repeats match poorly.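 Human fetal ventral-midbrain neural progenitor line ReNCell VM, differentiated without mitogens. Images stained for doublecortin (early neurons) or tyrosine hydroxylase (dopaminergic neurons) were scored by blinded raters against untreated wells (0 = no change). Repeats and both raters were averaged, and compounds averaging 2 or higher were picked as hits for retesting.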

Assay [1] has as its system ReNCell VM. Nature of the assay: neuronal differentiation score (DCX+ cell fraction vs untreated, manual image score) (score (-3 to 3)); higher = more neuronal differentiation. Conditions: 2 uM, 2 weeks.
For assay [2], the system named is ReNCell VM. Nature of the assay: dopaminergic neuron differentiation score (TH+ cell fraction vs untreated, manual image score) (score (0 to 3)); higher = more TH+ dopaminergic neuron differentiation. Conditions: 2 uM, 4 weeks, BDNF 10 ng/ml + GDNF 10 ng/ml.

Consider `CCCCCCc1ccc(O)cc1O.Nc1c2ccccc2nc2ccccc12`, for which, in the assay with ReNCell VM [1] (library: Spectrum), the neuronal differentiation score is inactive: 0. Further, the “dopaminergic neuron differentiation score” value with ReNCell VM [2] (library: Spectrum) is inactive: 0.

Turning to `COc1cc(=O)n(C)c2c(OCC3OC(C)(C)OC3(C)C)cccc12` (configuration not stated) [foliosidine acetonide], the neuronal differentiation score with ReNCell VM [1] (library: Natural) was inactive: 0. In the assay on ReNCell VM [2] (library: Natural), the “dopaminergic neuron differentiation score” value was inactive: 0.

Turning to `CN(C)CCN(Cc1ccccc1)c1ccccn1` [Tripelennamine hydrochloride], in the assay on ReNCell VM [1] (library: Prestwick), the neuronal differentiation score was inactive: 0. The “dopaminergic neuron differentiation score” value in the assay with ReNCell VM [2] (library: Prestwick) is inactive: 0.

In the case of `Cc1ncc([N+](=O)[O-])n1CC(O)CCl` (configuration not stated) [Ornidazole], in the assay on ReNCell VM [1] (library: Prestwick), the neuronal differentiation score was inactive: 0. Also, the “dopaminergic neuron differentiation score” value with ReNCell VM [2] (library: Prestwick) was inactive: 0.

For `CC(C)=CCCC1=CCC(C(=O)O)C(C(=O)O)C1` (configuration not stated), in the assay with ReNCell VM [1] (library: Natural), the neuronal differentiation score was inactive: 0. Moreover, the “dopaminergic neuron differentiation score” value in the assay on ReNCell VM [2] (library: Natural) is inactive: 0.

As to `C=CCCCCCCCCC(=O)O`, the neuronal differentiation score in the assay with ReNCell VM [1] (library: Spectrum) is inactive: 0. Also, the “dopaminergic neuron differentiation score” value in the assay with ReNCell VM [2] (library: Spectrum) was inactive: 0.

With `CNC(=O)[C@H]1O[C@@H](n2cnc3c(NCc4cccc(I)c4)nc(Cl)nc32)[C@H](O)[C@@H]1O` [Chloro-IB-MECA], the neuronal differentiation score with ReNCell VM [1] (library: LOPAC) was inactive: -1. Also, the “dopaminergic neuron differentiation score” value in the assay with ReNCell VM [2] (library: LOPAC) is inactive: 0.

As to `O=c1c(O)c(-c2ccc(O)cc2O)oc2cc(O)cc(O)c12`, the neuronal differentiation score in the assay on ReNCell VM [1] (library: Spectrum) is inactive: 0. In addition, in the assay on ReNCell VM [2] (library: Spectrum), the “dopaminergic neuron differentiation score” value was inactive: 0.

Turning to `CCCSc1ccc2[nH]c(NC(=O)OC)nc2c1` [Albendazole], in the assay with ReNCell VM [1] (library: Prestwick), the neuronal differentiation score was inactive: 0. Besides, in the assay on ReNCell VM [2] (library: Prestwick), the “dopaminergic neuron differentiation score” value was inactive: 0.

Turning to `COc1ccc(-c2oc3cc(OC)c(OC)c(OC)c3c(=O)c2OC)cc1OC`, the neuronal differentiation score in the assay with ReNCell VM [1] (library: Spectrum) is inactive: 0. In addition, the “dopaminergic neuron differentiation score” value in the assay on ReNCell VM [2] (library: Spectrum) was inactive: 0.

Take `O=C1c2ccc(O)c(O)c2C(=O)c2c(O)ccc(O)c21`: the neuronal differentiation score with ReNCell VM [1] (library: Spectrum) was inactive: 1. Moreover, the “dopaminergic neuron differentiation score” value in the assay on ReNCell VM [2] (library: Spectrum) was inactive: 0.

As to `NC(=S)c1ccc[n+]([C@@H]2O[C@@H](COP(=O)([O-])OP(=O)(O)OC[C@H]3O[C@@H](n4cnc5c(N)ncnc54)C(OP(=O)(O)O)[C@H]3O)C(O)C2O)c1` (some centres not stated) [Thio-NADP sodium], in the assay with ReNCell VM [1] (library: LOPAC), the neuronal differentiation score is inactive: 0. In addition, in the assay on ReNCell VM [2] (library: LOPAC), the “dopaminergic neuron differentiation score” value was inactive: 0.

For `CCN(CC)CCOc1ccc2c(c1)C(=O)c1cc(OCCN(CC)CC)ccc1-2`, in the assay on ReNCell VM [1] (library: Spectrum), the neuronal differentiation score was inactive: 0. Moreover, in the assay with ReNCell VM [2] (library: Spectrum), the “dopaminergic neuron differentiation score” value is inactive: 0.

In the case of `COc1ccc2[nH]cc(CCNC(C)=O)c2c1`, the neuronal differentiation score with ReNCell VM [1] (library: Spectrum) is inactive: 0. In addition, the “dopaminergic neuron differentiation score” value in the assay on ReNCell VM [2] (library: Spectrum) is inactive: 0.

`COC1=CC(=O)C(O)=C/C1=C\C=C\c1ccccc1`: the neuronal differentiation score in the assay with ReNCell VM [1] (library: Spectrum) is inactive: 0. The “dopaminergic neuron differentiation score” value with ReNCell VM [2] (library: Spectrum) was inactive: 0.

As to `Cc1nc(-c2coc3c(O)c(O)ccc3c2=O)cs1` [7,8-dihydroxy-3-(2-methyl-thiazol-4-yl)-chromen-4-one], the neuronal differentiation score in the assay with ReNCell VM [1] (library: Natural) is inactive: -3. Besides, the “dopaminergic neuron differentiation score” value in the assay on ReNCell VM [2] (library: Natural) is inactive: 0.

Consider `CC1(CN2CCC(n3c(=O)[nH]c4ccccc43)CC2)OCc2ccccc2-n2cccc21` (configuration not stated), for which the neuronal differentiation score with ReNCell VM [1] (library: Tocriscreen) was inactive: 0. Further, the “dopaminergic neuron differentiation score” value with ReNCell VM [2] (library: Tocriscreen) is inactive: 0.

Take `NC1(C(=O)O)CC1` [1-Aminocyclopropanecarboxylic acid hydrochloride]: the neuronal differentiation score in the assay with ReNCell VM [1] (library: LOPAC) is inactive: 0. Also, the “dopaminergic neuron differentiation score” value with ReNCell VM [2] (library: LOPAC) was inactive: 0.

As for `OC[C@H]1NC[C@@H](O)[C@@H](O)[C@@H]1O` [1-Deoxymannojirimycin hydrochloride], the neuronal differentiation score in the assay with ReNCell VM [1] (library: Tocriscreen) is inactive: 0. Further, the “dopaminergic neuron differentiation score” value in the assay on ReNCell VM [2] (library: Tocriscreen) was inactive: 0.

On to `Nc1nc2[nH]cnc2c(=S)[nH]1`, for which the neuronal differentiation score in the assay with ReNCell VM [1] (library: Spectrum) is inactive: 0. The “dopaminergic neuron differentiation score” value in the assay with ReNCell VM [2] (library: Spectrum) is inactive: 0.

On to `CO[C@@]12[C@H](COC(N)=O)C3=C(C(=O)C(C)=C(N)C3=O)N1C[C@@H]1N[C@@H]12`, for which, in the assay on ReNCell VM [1] (library: Spectrum), the neuronal differentiation score is inactive: 0. In addition, the “dopaminergic neuron differentiation score” value in the assay with ReNCell VM [2] (library: Spectrum) was inactive: 0.

With `N[C@H]1CONC1=O` [(S)-(-)-Cycloserine], in the assay with ReNCell VM [1] (library: Prestwick), the neuronal differentiation score was inactive: 0. Also, the “dopaminergic neuron differentiation score” value in the assay with ReNCell VM [2] (library: Prestwick) was inactive: 1.

For `CC(=O)OCC(=O)[C@@]12OC3(CCCC3)O[C@@H]1C[C@H]1[C@@H]3CCC4=CC(=O)C=C[C@]4(C)[C@@]3(F)[C@@H](O)C[C@@]12C` [Amcinonide], the neuronal differentiation score in the assay on ReNCell VM [1] (library: Prestwick) is inactive: 0. Further, the “dopaminergic neuron differentiation score” value in the assay on ReNCell VM [2] (library: Prestwick) was inactive: 0.

Turning to `O=c1[nH]c(=O)n([C@H]2C[C@H](O)[C@@H](CO)O2)cc1I`, the neuronal differentiation score in the assay with ReNCell VM [1] (library: Spectrum) was inactive: 0. Besides, the “dopaminergic neuron differentiation score” value in the assay with ReNCell VM [2] (library: Spectrum) was inactive: 0.

With `Cc1ccc(S(=O)(=O)NC(=O)NN2CC3CCCC3C2)cc1` (configuration not stated), the neuronal differentiation score in the assay on ReNCell VM [1] (library: Spectrum) is inactive: 0. For the same compound, the “dopaminergic neuron differentiation score” value with ReNCell VM [2] (library: Spectrum) was inactive: 1.

As to `N[C@@H](Cc1ccc(O)cc1)C(=O)O`, the neuronal differentiation score in the assay with ReNCell VM [1] (library: Spectrum) was inactive: 0. In addition, in the assay with ReNCell VM [2] (library: Spectrum), the “dopaminergic neuron differentiation score” value was inactive: 0.

With `CC(=O)OCC(=O)[C@@]1(O)[C@H](C)C[C@H]2[C@@H]3CCC4=CC(=O)C=C[C@]4(C)[C@@]3(F)[C@@H](O)C[C@@]21C`, the neuronal differentiation score with ReNCell VM [1] (library: Spectrum) is inactive: 0. Moreover, in the assay on ReNCell VM [2] (library: Spectrum), the “dopaminergic neuron differentiation score” value was inactive: 0.

On to `CC(=O)OC(C)C[N+](C)(C)C` (stereo not drawn) [Acetyl-beta-methylcholine chloride], for which the neuronal differentiation score with ReNCell VM [1] (library: LOPAC) is inactive: 0. Moreover, the “dopaminergic neuron differentiation score” value in the assay on ReNCell VM [2] (library: LOPAC) was inactive: 0.

Regarding `CS(=O)(=O)c1ccc([C@@H](O)[C@@H](CO)NC(=O)C(Cl)Cl)cc1` [Thiamphenicol], the neuronal differentiation score in the assay with ReNCell VM [1] (library: Prestwick) is inactive: 0. In the assay with ReNCell VM [2] (library: Prestwick), the “dopaminergic neuron differentiation score” value was inactive: 0.

Consider `O=c1[nH]c(-c2ccccc2O)nc2ccccc12` [2-(2-hydroxy-phenyl)-3h-quinazolin-4-one], for which the neuronal differentiation score in the assay with ReNCell VM [1] (library: Natural) was inactive: -1. The “dopaminergic neuron differentiation score” value in the assay with ReNCell VM [2] (library: Natural) is inactive: 0.

Consider `CC(=O)OCC(=O)[C@@]1(O)[C@@H](C)C[C@H]2[C@@H]3CCC4=CC(=O)C=C[C@]4(C)[C@@]3(F)[C@@H](O)C[C@@]21C`, for which the neuronal differentiation score in the assay with ReNCell VM [1] (library: Spectrum) was inactive: 0. Further, the “dopaminergic neuron differentiation score” value in the assay on ReNCell VM [2] (library: Spectrum) was inactive: 0.

For the origin of these results see the supplement of paper PMC4635364.
